Data: PMC5453608

Test system: Foxd.b DNA-binding domain-GST fusion (Ciona intestinalis)
Assay: EMSA
Conditions: 50 ng/uL poly(dIdC), 3' terminal TTT of each strand is biotin-11-dU (fill-in of the 5' AAA overhangs of S2/S3), 10 mM Tris pH 7.5, 50 mM KCl, 1 mM DTT, 1 mM EDTA, 2.5% glycerol, 0.05% NP40, temperature not stated, recombinant protein, protein details: GST, label: biotin, letters put together from the description

AAATAACAATAATGTTTACGTTGGTTTT (double strand) [Dmrt1 upstream Fox site probe]
binding result: binds

Construct, isoform or probe ends are uncertain for at least one entry.
